# Reference: patent publication US5880095A, “Cholesteryl ester transfer protein inhibitor peptides and prophylactic and therapeutic anti-arteriosclerosis agents” (LG Chemical Ltd., priority 1994, dated 1999)
# At least one peptide structure holds a part that was inferred or is arguable (an end, a ring closure or a residue). Some entries repeat one wording, which the source may state once for all of them. Non-standard residues stand in square brackets, D forms with d. Residues, ends and D or L forms follow the SMILES beside them. No end group written: not given here.
# Key:
# [1] = target: T1, CETP (human blood plasma as CETP source) (Homo sapiens, UniProt P11597); test: Determination of CETP inhibitory activity, human blood plasma itself as CETP source; assay type: biochemical; settings: for Inhibitory Activity (Mean ± SD): conc. of inhibitor 2 μM, peptides expressed in E. coli
# T1 construct: human blood plasma itself was used as the CETP source; from tissue; host or cells: human blood plasma (used as such)
# T1 sequence (P11597 18-493): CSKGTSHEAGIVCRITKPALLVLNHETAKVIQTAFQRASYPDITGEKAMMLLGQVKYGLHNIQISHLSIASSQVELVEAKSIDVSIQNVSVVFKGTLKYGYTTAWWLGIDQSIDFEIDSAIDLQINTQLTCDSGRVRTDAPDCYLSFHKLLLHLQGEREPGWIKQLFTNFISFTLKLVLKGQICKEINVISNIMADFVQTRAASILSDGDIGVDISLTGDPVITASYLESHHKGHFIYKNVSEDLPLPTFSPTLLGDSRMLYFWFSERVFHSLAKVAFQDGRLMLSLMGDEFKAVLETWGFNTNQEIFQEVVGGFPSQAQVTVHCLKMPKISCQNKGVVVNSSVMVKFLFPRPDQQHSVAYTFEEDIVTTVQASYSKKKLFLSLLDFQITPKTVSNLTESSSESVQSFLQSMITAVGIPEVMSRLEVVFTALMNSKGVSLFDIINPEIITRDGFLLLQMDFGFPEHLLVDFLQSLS
# Protocol: LDL and [^3 H]-cholesteryl oleate-labelled HDL were synthesized in accordance with the method of Morton et al.(see, J. Biol. Chem., 256, 11992-11995(1981)) and then separated using an ultracentrifuge(Beckman XL 70). LDL and [^3 H]-HDL, thus prepared, were used as a CE-receptor and a CE-donor, respectively.
# 0.3 ml of LDL, 0.05 ml of [^3 H]-HDL and 0.05 ml of the CETP source, which were prepared above, and 0.05 ml of a CETP inhibitor were added into a 1.5 ml tube and reacted at 37° C. for 3 hours.
# When the reaction was finished, LDL was precipitated in accordance with the method of Morton et al.(see, Biochim. Biophys. Acta, 663, 350-355(1981)). The amount of the isotope transferred to LDL was determined with a liquid scintillation counter(Packard Tricarb 1600 TR) using a part of the supernatant, and the activity of CETP was calculated therefrom.
# The inhibitory activity of the CETP inhibitor was calculated from the CETP activities of the experimental group, in which the CETP inhibitor was added, and that of control group, in which no CETP inhibitor was added, as follows: [formula]
# Further, the same procedures as in the Reference Example, except that human blood plasma itself was used as the CETP source, were repeated to determine CETP inhibitory activity of pure 3 kDa peptide.
# CETP inhibitory activities of peptides P28, P10, P18, P24, P20 and P14 were determined in accordance with the method of Reference Example 1 using pure CETP or human blood plasma as a CETP source. To exclude possible nonspecific inhibition, a 2 kDa soluble peptide having an optional amino acid sequence was synthesized, and CETP inhibitory activity thereof was determined in a similar manner(control group).
# [2] = system: antibody against Peptide P10; test: ELISA: inhibition of binding of Peptide P10 to its antibody by variants; set-up: species or system rabbit; settings: 1 μg of variant per 100 μl antibody solution, O.D. 492 nm (FIG. 10)
# [3] = In vivo effect on blood HDL cholesterol level in hyperlipemic rabbits; set-up: species or system New Zealand white rabbits; settings: group C; 20 mg intravenous, 0.3% cholesterol-fed rabbits; at 36 hours from the injection
# CETP = target: T2, CETP (Oryctolagus cuniculus, UniProt P22687); test: In vivo effect on CETP activity in hyperlipemic rabbits; set-up: species or system New Zealand white rabbits; settings: group C; 20 mg intravenous, 0.3% cholesterol-fed rabbits; until 30 hours after the injection
# T2 construct: from tissue; host or cells: blood plasma of hyperlipemic New Zealand white rabbits
# T2 sequence (P22687 2-497): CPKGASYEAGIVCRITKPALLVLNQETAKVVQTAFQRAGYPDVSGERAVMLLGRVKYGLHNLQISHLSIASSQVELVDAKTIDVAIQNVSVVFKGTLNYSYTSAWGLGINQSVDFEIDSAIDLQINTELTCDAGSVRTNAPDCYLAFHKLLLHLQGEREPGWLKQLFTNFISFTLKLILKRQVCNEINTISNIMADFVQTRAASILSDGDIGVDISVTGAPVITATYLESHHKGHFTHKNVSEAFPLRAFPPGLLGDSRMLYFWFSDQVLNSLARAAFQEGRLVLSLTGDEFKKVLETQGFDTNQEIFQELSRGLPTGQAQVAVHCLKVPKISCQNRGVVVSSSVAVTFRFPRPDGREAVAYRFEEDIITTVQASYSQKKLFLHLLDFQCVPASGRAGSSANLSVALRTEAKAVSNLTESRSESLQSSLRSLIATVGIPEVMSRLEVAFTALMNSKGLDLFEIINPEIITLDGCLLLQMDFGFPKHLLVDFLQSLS
# [4] = In vivo effect on total blood cholesterol level in hyperlipemic rabbits; set-up: species or system New Zealand white rabbits; settings: group C; 20 mg intravenous, 0.3% cholesterol-fed rabbits; after 9 hours from the injection
Compound,Inhibitory Activity (Mean ± SD) [1],inhibition of the binding of Peptide P10 to its antibody [2],other results
EDTSPEDKMQDYVK [Peptide P14],exhibits CETP inhibitory activities,,
SEAEDASLLSFMQ [Peptide P13],,,"Inhibitory Activity ([1]; final conc. of peptide 2 μM, P28' and P13 produced in E. coli): exhibit CETP inhibitory activity"
EDTSPEDKMQDYVKQATRTA [Peptide P20],exhibits CETP inhibitory activities,,
EDTSAEDKMQ [Variant E],,inhibited the binding,
EDTSPEDKMQDYVKQATRTAQDAL [Peptide P24],exhibits CETP inhibitory activities,,
EDTSPEDKMA [Variant J],,inhibited the binding,
EDTSPEDKMQ [Peptide P10],,,"blood HDL cholesterol level, % of the initial level [3]: 113%; CETP inhibitory activity compared to control group B (CETP): more than 70%; total blood cholesterol level, % of the initial level [4]: 80%"
CSCC[C@H](NC(=O)[C@H](CCCCN)NC(=O)[C@H](CC(=O)O)NC(=O)[C@H](CCC(=O)O)NC(=O)[C@@H]1CCCN1C(=O)[C@H](CO)NC(=O)[C@@H](NC(=O)[C@H](CC(=O)O)NC(=O)[C@@H](N)CCC(=O)O)[C@@H](C)O)C(=O)N[C@H](CCC(N)=O)C(=O)O [Variant D10] (H-EDTSPEDKM[dQ]-OH),,inhibited the binding,
